Measurements from the supplement of paper PMC10849652.
The other results are listed elsewhere or left out.

The chains behind the UniProt entries cited, without tags or fusion partners. Where a name states a change or a piece, a line headed by the entry shows the natural chain unless it says otherwise.
UniProt Q6ZRI6: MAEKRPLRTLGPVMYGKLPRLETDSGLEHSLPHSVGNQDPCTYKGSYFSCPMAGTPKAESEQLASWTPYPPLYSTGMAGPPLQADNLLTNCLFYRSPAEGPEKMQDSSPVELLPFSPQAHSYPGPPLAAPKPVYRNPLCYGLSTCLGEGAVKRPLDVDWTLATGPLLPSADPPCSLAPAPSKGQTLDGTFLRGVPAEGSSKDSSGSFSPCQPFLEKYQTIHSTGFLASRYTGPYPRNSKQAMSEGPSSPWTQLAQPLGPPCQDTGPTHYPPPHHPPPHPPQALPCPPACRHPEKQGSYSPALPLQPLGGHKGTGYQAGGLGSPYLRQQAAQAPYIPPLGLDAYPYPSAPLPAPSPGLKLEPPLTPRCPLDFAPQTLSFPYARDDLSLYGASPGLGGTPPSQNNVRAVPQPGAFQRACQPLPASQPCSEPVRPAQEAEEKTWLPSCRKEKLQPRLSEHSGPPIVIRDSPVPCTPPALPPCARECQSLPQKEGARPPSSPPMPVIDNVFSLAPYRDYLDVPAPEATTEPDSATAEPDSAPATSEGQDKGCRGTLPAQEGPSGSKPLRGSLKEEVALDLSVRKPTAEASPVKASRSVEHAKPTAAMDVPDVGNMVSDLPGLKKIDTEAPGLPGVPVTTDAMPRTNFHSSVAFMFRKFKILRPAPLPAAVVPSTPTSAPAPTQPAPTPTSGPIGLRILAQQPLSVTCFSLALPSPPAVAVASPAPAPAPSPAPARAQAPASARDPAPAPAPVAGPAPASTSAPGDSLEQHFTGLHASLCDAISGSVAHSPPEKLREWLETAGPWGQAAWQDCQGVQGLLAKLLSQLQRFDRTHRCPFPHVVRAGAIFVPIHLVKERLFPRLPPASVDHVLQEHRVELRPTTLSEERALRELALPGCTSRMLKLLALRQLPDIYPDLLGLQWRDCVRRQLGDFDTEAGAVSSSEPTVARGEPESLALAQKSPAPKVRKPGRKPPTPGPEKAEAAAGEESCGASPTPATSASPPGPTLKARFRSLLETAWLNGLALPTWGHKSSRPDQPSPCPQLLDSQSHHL
UniProt Q9NSK7: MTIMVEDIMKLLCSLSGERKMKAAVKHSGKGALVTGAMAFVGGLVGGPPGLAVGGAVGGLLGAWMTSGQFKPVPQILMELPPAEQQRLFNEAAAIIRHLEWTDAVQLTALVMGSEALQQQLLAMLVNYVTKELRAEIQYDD
UniProt Q6PH81: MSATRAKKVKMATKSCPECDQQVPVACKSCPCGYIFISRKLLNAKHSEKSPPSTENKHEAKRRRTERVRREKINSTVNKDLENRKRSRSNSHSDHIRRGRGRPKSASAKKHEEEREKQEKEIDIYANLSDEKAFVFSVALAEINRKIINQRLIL
UniProt Q9NQ89: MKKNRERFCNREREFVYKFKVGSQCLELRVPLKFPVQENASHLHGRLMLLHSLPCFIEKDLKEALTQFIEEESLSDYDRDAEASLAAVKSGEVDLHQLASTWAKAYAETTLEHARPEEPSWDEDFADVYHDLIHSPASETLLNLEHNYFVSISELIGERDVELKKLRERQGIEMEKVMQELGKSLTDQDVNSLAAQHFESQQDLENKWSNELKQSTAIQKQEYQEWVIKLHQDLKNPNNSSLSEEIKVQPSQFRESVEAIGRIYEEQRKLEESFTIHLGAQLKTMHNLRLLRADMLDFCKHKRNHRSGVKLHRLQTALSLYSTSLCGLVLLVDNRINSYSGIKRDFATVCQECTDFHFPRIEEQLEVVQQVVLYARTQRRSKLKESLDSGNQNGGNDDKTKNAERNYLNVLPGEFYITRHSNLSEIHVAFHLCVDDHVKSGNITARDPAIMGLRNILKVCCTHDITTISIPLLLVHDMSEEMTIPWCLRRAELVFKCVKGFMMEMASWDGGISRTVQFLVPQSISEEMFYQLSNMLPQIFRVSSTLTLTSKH
UniProt Q9Y6J0: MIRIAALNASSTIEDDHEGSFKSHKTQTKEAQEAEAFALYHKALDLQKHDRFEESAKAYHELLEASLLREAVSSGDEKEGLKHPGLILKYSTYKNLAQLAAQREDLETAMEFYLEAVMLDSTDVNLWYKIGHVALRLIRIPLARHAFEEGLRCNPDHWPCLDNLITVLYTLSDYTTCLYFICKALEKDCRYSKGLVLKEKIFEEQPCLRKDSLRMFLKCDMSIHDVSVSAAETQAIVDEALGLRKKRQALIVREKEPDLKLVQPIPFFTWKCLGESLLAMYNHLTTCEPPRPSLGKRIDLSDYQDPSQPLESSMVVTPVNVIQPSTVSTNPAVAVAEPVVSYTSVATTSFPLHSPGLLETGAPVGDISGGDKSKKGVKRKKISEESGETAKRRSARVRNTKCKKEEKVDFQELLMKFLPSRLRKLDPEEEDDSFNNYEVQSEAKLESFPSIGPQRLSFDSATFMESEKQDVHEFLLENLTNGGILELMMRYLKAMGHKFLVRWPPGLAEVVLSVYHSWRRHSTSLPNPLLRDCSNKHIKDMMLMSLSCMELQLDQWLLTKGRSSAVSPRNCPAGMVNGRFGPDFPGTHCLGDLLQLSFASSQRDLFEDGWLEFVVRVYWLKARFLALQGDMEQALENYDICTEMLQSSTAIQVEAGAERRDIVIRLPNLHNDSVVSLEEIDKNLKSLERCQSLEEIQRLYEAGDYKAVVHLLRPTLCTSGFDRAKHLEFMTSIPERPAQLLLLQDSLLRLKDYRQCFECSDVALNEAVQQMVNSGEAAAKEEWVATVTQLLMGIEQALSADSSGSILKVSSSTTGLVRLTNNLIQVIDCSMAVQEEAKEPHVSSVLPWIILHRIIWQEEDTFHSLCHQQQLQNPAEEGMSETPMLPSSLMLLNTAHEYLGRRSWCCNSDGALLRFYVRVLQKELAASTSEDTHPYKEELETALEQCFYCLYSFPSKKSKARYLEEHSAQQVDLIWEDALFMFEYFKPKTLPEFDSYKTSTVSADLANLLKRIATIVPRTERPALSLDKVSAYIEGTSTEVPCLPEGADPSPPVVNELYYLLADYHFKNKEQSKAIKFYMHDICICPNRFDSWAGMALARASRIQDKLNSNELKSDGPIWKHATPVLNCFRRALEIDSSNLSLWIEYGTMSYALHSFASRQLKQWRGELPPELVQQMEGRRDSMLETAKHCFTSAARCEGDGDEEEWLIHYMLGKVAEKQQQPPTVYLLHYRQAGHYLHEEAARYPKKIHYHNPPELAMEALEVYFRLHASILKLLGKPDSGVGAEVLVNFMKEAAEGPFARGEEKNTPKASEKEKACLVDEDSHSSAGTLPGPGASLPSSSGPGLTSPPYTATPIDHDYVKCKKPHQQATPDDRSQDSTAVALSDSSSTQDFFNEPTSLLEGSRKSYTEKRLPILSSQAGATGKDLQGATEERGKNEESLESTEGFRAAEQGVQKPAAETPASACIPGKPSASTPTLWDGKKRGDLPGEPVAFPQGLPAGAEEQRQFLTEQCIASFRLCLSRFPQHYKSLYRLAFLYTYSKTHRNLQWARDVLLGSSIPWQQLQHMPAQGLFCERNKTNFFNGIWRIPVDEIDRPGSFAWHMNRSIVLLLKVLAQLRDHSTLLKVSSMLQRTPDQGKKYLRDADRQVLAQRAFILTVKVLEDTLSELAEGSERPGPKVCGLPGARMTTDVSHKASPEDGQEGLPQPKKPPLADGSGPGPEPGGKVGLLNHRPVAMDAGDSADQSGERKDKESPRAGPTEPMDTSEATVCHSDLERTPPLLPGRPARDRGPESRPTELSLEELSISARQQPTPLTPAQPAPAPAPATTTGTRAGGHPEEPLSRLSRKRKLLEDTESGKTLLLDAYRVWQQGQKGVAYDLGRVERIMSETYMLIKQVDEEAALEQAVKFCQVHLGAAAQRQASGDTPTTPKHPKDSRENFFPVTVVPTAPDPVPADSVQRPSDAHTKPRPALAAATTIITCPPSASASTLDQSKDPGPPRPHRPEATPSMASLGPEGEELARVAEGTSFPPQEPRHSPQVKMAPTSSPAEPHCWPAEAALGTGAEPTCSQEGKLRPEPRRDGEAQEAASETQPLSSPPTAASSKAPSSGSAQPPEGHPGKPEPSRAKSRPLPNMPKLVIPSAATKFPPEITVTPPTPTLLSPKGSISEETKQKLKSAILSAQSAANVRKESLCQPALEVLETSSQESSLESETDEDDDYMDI
UniProt Q96F05: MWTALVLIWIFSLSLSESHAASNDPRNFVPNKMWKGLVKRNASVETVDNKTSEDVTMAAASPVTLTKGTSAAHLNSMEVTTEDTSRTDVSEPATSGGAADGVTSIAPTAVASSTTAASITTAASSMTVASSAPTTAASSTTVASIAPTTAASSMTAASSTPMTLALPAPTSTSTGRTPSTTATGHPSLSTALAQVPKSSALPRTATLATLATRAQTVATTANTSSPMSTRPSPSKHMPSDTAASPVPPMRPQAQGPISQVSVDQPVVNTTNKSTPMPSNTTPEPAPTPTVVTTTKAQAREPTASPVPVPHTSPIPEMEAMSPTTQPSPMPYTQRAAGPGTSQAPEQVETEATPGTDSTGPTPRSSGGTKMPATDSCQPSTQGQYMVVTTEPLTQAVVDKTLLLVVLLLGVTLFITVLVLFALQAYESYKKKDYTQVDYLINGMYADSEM
UniProt Q96LT7: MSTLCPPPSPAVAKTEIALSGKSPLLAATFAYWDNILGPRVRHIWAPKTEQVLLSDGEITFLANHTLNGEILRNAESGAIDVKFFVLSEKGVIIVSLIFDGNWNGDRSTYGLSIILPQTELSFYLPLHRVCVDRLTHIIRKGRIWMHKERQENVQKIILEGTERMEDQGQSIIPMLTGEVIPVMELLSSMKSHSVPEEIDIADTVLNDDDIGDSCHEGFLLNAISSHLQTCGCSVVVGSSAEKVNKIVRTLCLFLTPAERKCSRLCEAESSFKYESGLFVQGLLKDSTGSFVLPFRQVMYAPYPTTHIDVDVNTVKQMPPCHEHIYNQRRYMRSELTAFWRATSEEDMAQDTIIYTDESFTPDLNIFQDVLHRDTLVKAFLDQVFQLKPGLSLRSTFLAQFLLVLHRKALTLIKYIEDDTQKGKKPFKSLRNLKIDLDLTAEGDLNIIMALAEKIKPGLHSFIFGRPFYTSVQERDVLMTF
UniProt Q3KRA6: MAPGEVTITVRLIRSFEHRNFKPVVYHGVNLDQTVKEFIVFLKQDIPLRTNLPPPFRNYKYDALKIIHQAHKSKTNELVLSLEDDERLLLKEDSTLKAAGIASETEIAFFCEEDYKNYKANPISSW
UniProt Q7Z6I8: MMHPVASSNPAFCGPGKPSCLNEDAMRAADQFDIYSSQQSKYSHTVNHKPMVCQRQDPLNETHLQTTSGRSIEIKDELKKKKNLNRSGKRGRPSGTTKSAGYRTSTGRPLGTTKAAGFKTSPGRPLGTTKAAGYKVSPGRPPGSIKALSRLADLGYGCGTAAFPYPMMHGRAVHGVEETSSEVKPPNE
UniProt Q8IYL3: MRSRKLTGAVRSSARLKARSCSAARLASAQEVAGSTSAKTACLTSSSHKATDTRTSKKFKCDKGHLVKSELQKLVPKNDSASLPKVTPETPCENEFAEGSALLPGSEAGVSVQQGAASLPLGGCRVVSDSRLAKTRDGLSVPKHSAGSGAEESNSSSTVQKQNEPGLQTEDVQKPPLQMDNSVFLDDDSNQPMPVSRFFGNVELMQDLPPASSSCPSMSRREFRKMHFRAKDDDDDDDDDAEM
UniProt Q96HA4: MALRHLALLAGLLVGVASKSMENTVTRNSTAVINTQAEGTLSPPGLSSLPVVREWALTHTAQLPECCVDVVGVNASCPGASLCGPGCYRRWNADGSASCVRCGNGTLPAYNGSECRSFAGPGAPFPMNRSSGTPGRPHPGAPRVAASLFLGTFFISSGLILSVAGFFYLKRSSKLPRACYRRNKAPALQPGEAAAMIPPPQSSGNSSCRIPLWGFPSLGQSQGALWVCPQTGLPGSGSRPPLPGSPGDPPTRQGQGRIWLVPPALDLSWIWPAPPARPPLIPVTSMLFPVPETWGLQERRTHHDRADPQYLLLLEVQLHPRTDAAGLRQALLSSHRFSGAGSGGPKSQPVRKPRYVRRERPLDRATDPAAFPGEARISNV
UniProt Q16581: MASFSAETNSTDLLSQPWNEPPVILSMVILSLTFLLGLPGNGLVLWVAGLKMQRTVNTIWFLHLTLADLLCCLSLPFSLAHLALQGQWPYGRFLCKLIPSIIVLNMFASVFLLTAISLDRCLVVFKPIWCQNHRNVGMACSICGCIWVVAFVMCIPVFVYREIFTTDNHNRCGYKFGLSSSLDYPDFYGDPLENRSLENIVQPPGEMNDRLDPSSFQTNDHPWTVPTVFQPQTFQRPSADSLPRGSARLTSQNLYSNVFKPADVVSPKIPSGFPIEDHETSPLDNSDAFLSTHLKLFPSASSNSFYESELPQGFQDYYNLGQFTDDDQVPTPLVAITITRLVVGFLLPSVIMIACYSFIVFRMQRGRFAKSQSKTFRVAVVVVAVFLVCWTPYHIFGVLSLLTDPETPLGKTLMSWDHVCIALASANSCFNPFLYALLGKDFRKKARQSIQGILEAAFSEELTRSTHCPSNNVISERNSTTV
UniProt Q504U0: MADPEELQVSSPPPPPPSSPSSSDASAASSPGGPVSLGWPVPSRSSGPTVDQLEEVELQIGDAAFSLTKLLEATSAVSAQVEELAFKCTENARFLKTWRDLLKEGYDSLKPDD

Columns and labels:
Test in all cases: log2 fold change, soluble protein after heating vs DMSO (PISA); higher = thermal stabilisation; K562 lysate, 10 uM; active = over 0.2 and 3.5 SD of the protein, either way, in both replicates (recomputed)
vorinostat = compound: O=C(CCCCCCC(=O)Nc1ccccc1)NO [vorinostat]
Method in brief: (§1)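 Soluble protein was defined as the supernatant remaining after 21,000xg for 90 min, following pooling of heated aliquots and adjustment to 0.5% NP-40 at 4°C. Before that, crude K562 extract at 1 mg/mL protein in PBS pH 7.4 with 1 mM MgCl2 was treated with 10 μM compound for 30 min and heated for 3 min across 48°C-58°C. Quantification used TMTpro 16plex LC-MS/MS with channel sums equalised, and values are log-two fold changes in thermal stability relative to solvent controls from duplicates.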

silmitasertib = compound: O=C(O)c1ccc2c(c1)nc(Nc1cccc(Cl)c1)c1ccncc12 [silmitasertib]
Method in brief: as §1

[1] = compound: O=C1NC(=O)C(c2cnc3ccccn23)=C1c1cn2c3c(cc(F)cc13)CN(C(=O)N1CCCCC1)CC2
Method in brief: as §1

entospletinib = compound: c1cn2cc(-c3ccc4cn[nH]c4c3)nc(Nc3ccc(N4CCOCC4)cc3)c2n1 [entospletinib]
Method in brief: as §1

[2] = compound: NCC(=O)Nc1ccc(-n2nc(C(F)(F)F)cc2-c2ccc3c(ccc4ccccc43)c2)cc1
Method in brief: as §1

With C1orf109 (UniProt Q9NX04) the log2 fold change (vorinostat) was inactive: -0.056, the log2 fold change (silmitasertib) was inactive: 0.092 and the log2 fold change [1] was inactive: -0.027. The log2 fold change (entospletinib) was inactive: 0.026.

In the case of CACNA1C isoform 2 (UniProt Q13936), the log2 fold change (vorinostat) is reported as inactive: -0.082 and the log2 fold change (silmitasertib) is reported as inactive: 0.028.

With C6orf136 isoform 4 (UniProt Q5SQH8) the log2 fold change [2] was inactive: -0.121, the log2 fold change (vorinostat) was inactive: -0.095 and the log2 fold change (silmitasertib) was inactive: 0.037. For the same target, the log2 fold change (entospletinib) was inactive: -0.017.

In the case of C15orf39 (UniProt Q6ZRI6), the log2 fold change (vorinostat) is reported as active: -0.513, the log2 fold change (silmitasertib) is reported as inactive: 0.008 and the log2 fold change [1] is reported as inactive: -0.025. For the same target, the log2 fold change (entospletinib) was inactive: -0.147.

For CAP1 (UniProt Q5T0R8), the log2 fold change (vorinostat) was inactive: -0.352 and the log2 fold change (silmitasertib) was inactive: -0.294.

CA1 (UniProt E5RIF9) was tested, and the log2 fold change (entospletinib) was inactive: -0.458.

With C6orf120 (UniProt Q7Z4R8) the log2 fold change (vorinostat) was inactive: 0.273 and the log2 fold change (silmitasertib) was inactive: -0.075.

With C1RL (UniProt Q9NZP8) the log2 fold change (entospletinib) was inactive: 0.129.

With CARD19 (UniProt Q96LW7) the log2 fold change [1] was inactive: -0.021.

For CABLES2 (UniProt Q9BTV7), the log2 fold change [2] was inactive: 0.059, the log2 fold change [1] was inactive: 0.182 and the log2 fold change (entospletinib) was inactive: -0.01.

C18orf25 isoform 2 (UniProt Q96B23) was tested, and the log2 fold change [2] was inactive: -0.014, the log2 fold change (vorinostat) was inactive: -0.034 and the log2 fold change (silmitasertib) was inactive: -0.067. For the same target, the log2 fold change (entospletinib) was inactive: 0.038.

C2CD2 (UniProt Q9Y426) was tested, and the log2 fold change (vorinostat) was inactive: -0.162, the log2 fold change (silmitasertib) was inactive: 0.063 and the log2 fold change [1] was inactive: 0.044. The log2 fold change (entospletinib) was inactive: -0.079.

C6orf62 (UniProt Q9GZU0) was tested, and the log2 fold change [2] was inactive: -0.097 and the log2 fold change [1] was inactive: -0.197.

In the case of CAP1 isoform 2 (UniProt Q01518), the log2 fold change (vorinostat) is reported as inactive: 0.214, the log2 fold change (silmitasertib) is reported as inactive: -0.012 and the log2 fold change [1] is reported as inactive: 0.054.

CA6 (UniProt P23280) was tested, and the log2 fold change (vorinostat) was inactive: 0.089 and the log2 fold change (silmitasertib) was inactive: -0.013.

With C19orf12 (UniProt Q9NSK7) the log2 fold change [1] was inactive: -0.018 and the log2 fold change (entospletinib) was inactive: 0.008.

With C16orf87 (UniProt Q6PH81) the log2 fold change [2] was inactive: 0.015, the log2 fold change [1] was inactive: 0.091 and the log2 fold change (entospletinib) was inactive: -0.034.

For C12orf4 (UniProt Q9NQ89), the log2 fold change (vorinostat) was inactive: -0.425, the log2 fold change (silmitasertib) was inactive: 0.071 and the log2 fold change [1] was inactive: 0.027. The log2 fold change (entospletinib) was inactive: 0.102.

In the case of C18orf21 (UniProt Q32NC0), the log2 fold change (vorinostat) is reported as inactive: -0.039, the log2 fold change (silmitasertib) is reported as inactive: -0.045 and the log2 fold change [1] is reported as inactive: 0.093.

With BTRC (UniProt Q9Y297) the log2 fold change [2] was inactive: 0.03, the log2 fold change (vorinostat) was active: -0.342 and the log2 fold change (silmitasertib) was inactive: 0.035. For the same target, the log2 fold change (entospletinib) was inactive: -0.004.

C14orf119 (UniProt Q9NWQ9) was tested, and the log2 fold change [1] was inactive: -0.036.

With CABIN1 (UniProt Q9Y6J0) the log2 fold change [2] was inactive: -0.027, the log2 fold change (vorinostat) was inactive: -0.325 and the log2 fold change (silmitasertib) was inactive: 0.041. The log2 fold change (entospletinib) was inactive: -0.033.

For BUD13 (UniProt Q9BRD0), the log2 fold change (vorinostat) was inactive: 0.136, the log2 fold change (silmitasertib) was inactive: 0.054 and the log2 fold change [1] was inactive: 0.036. The log2 fold change (entospletinib) was inactive: -0.046.

C11orf24 (UniProt Q96F05) was tested, and the log2 fold change [1] was inactive: 0.063.

In the case of C12orf73 (UniProt Q69YU5), the log2 fold change (vorinostat) is reported as inactive: 0.044, the log2 fold change (silmitasertib) is reported as inactive: -0.004 and the log2 fold change [1] is reported as inactive: 0.019.

C9orf72 (UniProt Q96LT7) was tested, and the log2 fold change (vorinostat) was active: 0.919, the log2 fold change (silmitasertib) was inactive: -0.045 and the log2 fold change [1] was inactive: -0.015. The log2 fold change (entospletinib) was inactive: -0.129.

For C2orf76 (UniProt Q3KRA6), the log2 fold change (vorinostat) was inactive: 0.146, the log2 fold change (silmitasertib) was inactive: -0.012 and the log2 fold change [1] was inactive: 0. The log2 fold change (entospletinib) was inactive: 0.029.

For C5orf24 (UniProt Q7Z6I8), the log2 fold change [1] was inactive: -0.11.

C22orf39 (UniProt Q6P5X5) was tested, and the log2 fold change [2] was inactive: -0.252 and the log2 fold change (entospletinib) was inactive: 0.281.

For C8orf88 (UniProt P0DMB2), the log2 fold change (vorinostat) was active: -0.455, the log2 fold change (silmitasertib) was inactive: 0.056 and the log2 fold change [1] was inactive: 0.024.

With CAPN1 (UniProt E9PLX0) the log2 fold change [2] was inactive: 0.039, the log2 fold change [1] was inactive: -0.186 and the log2 fold change (entospletinib) was inactive: -0.14.

In the case of C11orf96 (UniProt Q7Z7L8), the log2 fold change (vorinostat) is reported as inactive: -0.074, the log2 fold change (silmitasertib) is reported as inactive: -0.052 and the log2 fold change [1] is reported as inactive: 0.036.

In the case of CARD6 (UniProt Q9BX69), the log2 fold change [2] is reported as inactive: -0.036 and the log2 fold change [1] is reported as inactive: 0.143.

C1orf174 (UniProt Q8IYL3) was tested, and the log2 fold change [2] was inactive: -0.015 and the log2 fold change [1] was inactive: -0.019.

C1orf159 isoform 4 (UniProt Q96HA4) was tested, and the log2 fold change (entospletinib) was inactive: -0.355.

CAND1 (UniProt F5H6I6) was tested, and the log2 fold change (vorinostat) was inactive: 0.097, the log2 fold change (silmitasertib) was inactive: -0.135 and the log2 fold change [1] was inactive: 0.152. For the same target, the log2 fold change (entospletinib) was inactive: -0.075.

For C3AR1 (UniProt Q16581), the log2 fold change [1] was inactive: -0.013.

C4orf46 (UniProt Q504U0) was tested, and the log2 fold change (vorinostat) was inactive: 0.016 and the log2 fold change (silmitasertib) was inactive: -0.03.
